Data published in publication PMC10710504.
These are yes or no findings as the source states them, for the method shown. Binding seen in cells or lysates may run through a third protein. Some entries that bind do so weakly or less than the wild type. Blank lines part the entries; values can stand above or below the molecule they belong to.

By UniProt entry, the sequences of proteins in these tests, tags left out. Residues count along the entry.
UniProt Q08345, residues 19-913: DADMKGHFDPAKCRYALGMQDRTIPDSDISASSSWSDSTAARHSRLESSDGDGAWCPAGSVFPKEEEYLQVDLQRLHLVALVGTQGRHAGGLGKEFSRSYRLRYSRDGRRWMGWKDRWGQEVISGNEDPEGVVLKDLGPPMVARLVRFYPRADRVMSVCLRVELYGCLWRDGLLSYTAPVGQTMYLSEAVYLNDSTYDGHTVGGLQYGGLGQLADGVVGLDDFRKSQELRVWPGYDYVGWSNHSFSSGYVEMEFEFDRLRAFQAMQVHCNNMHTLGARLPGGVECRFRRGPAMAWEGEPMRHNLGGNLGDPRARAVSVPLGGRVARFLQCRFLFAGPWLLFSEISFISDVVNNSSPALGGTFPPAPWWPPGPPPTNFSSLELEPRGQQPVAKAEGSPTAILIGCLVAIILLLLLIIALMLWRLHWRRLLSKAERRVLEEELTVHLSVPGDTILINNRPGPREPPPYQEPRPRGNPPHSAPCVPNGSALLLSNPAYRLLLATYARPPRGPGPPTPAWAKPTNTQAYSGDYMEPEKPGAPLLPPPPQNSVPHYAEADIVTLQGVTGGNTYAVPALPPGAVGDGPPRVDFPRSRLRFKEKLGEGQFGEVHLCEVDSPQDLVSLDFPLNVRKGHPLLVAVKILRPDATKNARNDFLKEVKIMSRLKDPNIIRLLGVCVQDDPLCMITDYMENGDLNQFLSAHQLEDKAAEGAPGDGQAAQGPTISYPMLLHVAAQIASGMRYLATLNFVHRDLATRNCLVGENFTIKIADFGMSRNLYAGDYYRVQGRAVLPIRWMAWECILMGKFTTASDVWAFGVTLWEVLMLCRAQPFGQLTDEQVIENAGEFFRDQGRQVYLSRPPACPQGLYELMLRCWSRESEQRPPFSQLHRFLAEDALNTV
UniProt P31749: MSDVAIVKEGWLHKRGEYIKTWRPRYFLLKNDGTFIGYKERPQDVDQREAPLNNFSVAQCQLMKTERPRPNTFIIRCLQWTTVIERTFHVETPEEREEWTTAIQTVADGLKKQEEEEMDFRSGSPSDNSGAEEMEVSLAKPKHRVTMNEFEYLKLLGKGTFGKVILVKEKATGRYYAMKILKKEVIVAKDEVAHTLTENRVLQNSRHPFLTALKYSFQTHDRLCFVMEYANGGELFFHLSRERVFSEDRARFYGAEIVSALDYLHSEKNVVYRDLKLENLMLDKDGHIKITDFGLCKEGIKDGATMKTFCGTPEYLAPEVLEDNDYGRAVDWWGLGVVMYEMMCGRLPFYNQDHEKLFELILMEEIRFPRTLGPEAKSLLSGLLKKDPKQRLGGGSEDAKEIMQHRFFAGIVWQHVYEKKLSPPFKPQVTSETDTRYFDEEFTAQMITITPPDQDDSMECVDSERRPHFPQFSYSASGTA

Legend:
[1] = target: DDR1 (discoidin domain receptor 1) (human (endogenous in PDAC cells)) (UniProt Q08345); assay: co-IP; endogenous DDR1 immunoprecipitated from whole-cell lysates of PDAC cells treated with SH2 TrM-(Arg)9 or PBS; cells pre-treated with collagen (40 µg/mL, 24 h); IgG as control
[2] = target: T1, STX17 (human (endogenous in PANC-1)), P56962; assay: co-IP; STX17 with VAMP8 and SNAP29 from PANC-1/GEM (gemcitabine-resistant) whole-cell lysates; cells with or without SH2 TrM-(Arg)9 (1 µM, 2 h); IgG as control; conditions: remark: other sources report otherwise
T1 chain: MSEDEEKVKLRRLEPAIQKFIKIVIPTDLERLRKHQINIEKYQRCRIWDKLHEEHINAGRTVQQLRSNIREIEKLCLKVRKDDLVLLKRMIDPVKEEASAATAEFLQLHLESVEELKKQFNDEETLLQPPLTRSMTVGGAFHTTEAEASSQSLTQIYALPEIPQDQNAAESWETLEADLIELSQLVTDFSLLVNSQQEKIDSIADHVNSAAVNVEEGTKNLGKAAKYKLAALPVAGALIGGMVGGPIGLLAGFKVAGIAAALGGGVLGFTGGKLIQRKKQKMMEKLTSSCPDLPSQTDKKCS

[3] = target: T1, STX17 (human (endogenous in PANC-1)), …; assay: co-IP; endogenous STX17 with VAMP8 and SNAP29 from PANC-1 whole-cell lysates; cells treated with SH2 TrM-(Arg)9, siDDR1 or transfected with Flag-DDR1 Y792F; IgG as control; conditions: remark: other sources report otherwise

binding [1]: binds
Molecule: Akt1 (from UniProt P31749 1-480)

binding [1]: binds
Molecule: Beclin1 (from UniProt Q14457 1-450)

binding [2]: binds
binding [3]: binds
B1: VAMP8, Q9BV40 1-100 (protein)
chain: MEEASEGGGNDRVRNLQSEVEGVKNIMTQNVERILARGENLEHLRNKTEDLEATSEHFKTTSQKVARKFWWKNVKMIVLICVIVFIIILFIVLFATGAFS
